Measured values: PMC7753843
These are yes or no findings as the source states them, for the method shown. In cells and extracts the contact can be indirect. A result given as binding can be weak or reduced; the word gives no strength. Values belong to the binder of their own block, whether it stands above or below them.

How the values were obtained:
[1] = molecular target: retinoic acid receptor (RAR), endogenous in HCC tumour tissues (human (endogenous in HCC tumour tissue)); experiment: co-IP; CoIP in clinical HCC tissue specimens (tumour tissues with high serum AFP)
[2] = molecular target: GST‐RAR fusion protein; experiment: pull-down; GST pull‐down: GST‐RAR fusion protein with TNT T7 translation products, detected by Western blotting; only the target purified

binding [1]: binds
B1: AFP, endogenous in HCC tumour tissues with high serum AFP (protein, UniProt P02771 19-609)
chain: RTLHRNEYGIASILDSYQCTAEISLADLATIFFAQFVQEATYKEVSKMVKDALTAIEKPTGDEQSSGCLENQLPAFLEELCHEKEILEKYGHSDCCSQSEEGRHNCFLAHKKPTPASIPLFQVPEPVTSCEAYEEDRETFMNKFIYEIARRHPFLYAPTILLWAARYDKIIPSCCKAENAVECFQTKAATVTKELRESSLLNQHACAVMKNFGTRTFQAITVTKLSQKFTKVNFTEIQKLVLDVAHVHEHCCRGDVLDCLQDGEKIMSYICSQQDTLSNKITECCKLTTLERGQCIIHAENDEKPEGLSPNLNRFLGDRDFNQFSSGEKNIFLASFVHEYSRRHPQLAVSVILRVAKGYQELLEKCFQTENPLECQDKGEEELQKYIQESQALAKRSCGLFQKLGEYYLQNAFLVAYTKKAPQLTSSELMAITRKMAATAATCCQLSEDKLLACGEGAADIIIGHLCIRHEMTPVNPGVGQCCTSSYANRRPCFSSLVVDETYVPPAFSDDKFIFHKDLCQAQGVALQTMKQEFLINLVKQKPQITEEQLEAVIADFSGLLEKCCQGQEQEVCFAEEGQKLISKTRAALGV

binding [2]: binds
B2: AFP, TNT system translation product (protein, UniProt P02771 1-609)
chain: MKWVESIFLIFLLNFTESRTLHRNEYGIASILDSYQCTAEISLADLATIFFAQFVQEATYKEVSKMVKDALTAIEKPTGDEQSSGCLENQLPAFLEELCHEKEILEKYGHSDCCSQSEEGRHNCFLAHKKPTPASIPLFQVPEPVTSCEAYEEDRETFMNKFIYEIARRHPFLYAPTILLWAARYDKIIPSCCKAENAVECFQTKAATVTKELRESSLLNQHACAVMKNFGTRTFQAITVTKLSQKFTKVNFTEIQKLVLDVAHVHEHCCRGDVLDCLQDGEKIMSYICSQQDTLSNKITECCKLTTLERGQCIIHAENDEKPEGLSPNLNRFLGDRDFNQFSSGEKNIFLASFVHEYSRRHPQLAVSVILRVAKGYQELLEKCFQTENPLECQDKGEEELQKYIQESQALAKRSCGLFQKLGEYYLQNAFLVAYTKKAPQLTSSELMAITRKMAATAATCCQLSEDKLLACGEGAADIIIGHLCIRHEMTPVNPGVGQCCTSSYANRRPCFSSLVVDETYVPPAFSDDKFIFHKDLCQAQGVALQTMKQEFLINLVKQKPQITEEQLEAVIADFSGLLEKCCQGQEQEVCFAEEGQKLISKTRAALGV
